Laboratory results from patent US8288404B2, “Pyrrolidine GPR40 modulators” (Bristol-Myers Squibb Company, priority 2009, dated 2012).
Where a name gives a salt, the structure may show the parent alone. Some results were stated once for a whole list of compounds, not compound by compound.

Sequences of proteins named here, by UniProt entry; tags and fusion partners are left off.
UniProt O14842, whole entry: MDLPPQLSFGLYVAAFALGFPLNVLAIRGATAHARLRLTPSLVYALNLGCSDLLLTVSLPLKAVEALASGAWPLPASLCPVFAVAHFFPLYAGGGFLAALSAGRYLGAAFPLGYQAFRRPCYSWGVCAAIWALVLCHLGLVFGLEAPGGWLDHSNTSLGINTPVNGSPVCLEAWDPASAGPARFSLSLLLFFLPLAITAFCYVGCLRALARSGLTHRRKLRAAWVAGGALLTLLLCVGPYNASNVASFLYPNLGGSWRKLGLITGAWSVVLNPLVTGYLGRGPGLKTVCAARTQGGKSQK

Target: T1, hGPR40 (Homo sapiens, UniProt O14842)
T1 construct: 3xFLAG; expressed in transfected cells
Assay: FDSS-Based Intracellular Calcium Assay (Human GRP40 In Vitro assay)
Assay type: cell-based
Protocol: FDSS-Based Intracellular Calcium Assay
Cell lines expressing GPR40 are generated using the pDEST 3xflag gene expression system and are cultured in culture medium comprising the following components: F12 (Gibco #11765), 10% lipid deprived fetal bovine serum, 250 ug/ml zeocin and 500 ug/ml G418. To conduct the fluorescent imaging plate reader (FLIPR)-based calcium flux assay to measure intracellular Ca^2+ response, cells expressing GPR40 are plated on 384 well plates (BD Biocoat #356697) at a density of 20,000 cells/20 ul medium per well in phenol red and serum-free DMEM (Gibco #21063-029) and incubated overnight. Using BD kit #s 80500-310 or -301, the cells are incubated with 20 ul per well of Hank's buffered salt solution with 1.7 mM probenecid and Fluo-3 at 37° C. for 30 minutes. Compounds are dissolved in DMSO and diluted to desired concentrations with assay buffer and added to the cells as 3× solution (20 ul per well). Run fluorescence/luminescence reader FDSS (Hamamatsu) to read intracellular Ca^2+ response.
Table 1 below lists hGPR40 EC50 values measured for the following examples.

SMILES	hGRP40 modulating activity
Cc1ccccc1Oc1ccc(N2CCC[C@H]2CC(=O)O)cc1F [Example 1, (S)-2-(1-(3-fluoro-4-(o-tolyloxy)phenyl)pyrrolidin-2-yl)acetic acid, TFA]	found having hGRP40 modulating activity
O=C(O)C[C@@H]1CCCN1c1ccc(Oc2ccccc2F)cc1 [Example 2, (S)-2-(1-(4-(2-fluorophenoxy)phenyl)pyrrolidin-2-yl)acetic acid, TFA]	found having hGRP40 modulating activity
Cc1cccc(C)c1Oc1ccc(N2CCC[C@H]2CC(=O)O)cc1 [Example 3, (S)-2-(1-(4-(2,6-dimethylphenoxy)phenyl)pyrrolidin-2-yl)acetic acid, HCl]	found having hGRP40 modulating activity
Cc1cccc(C)c1Oc1ccc(N2CCC[C@@H]2CC(=O)O)cc1 [Example 4, (R)-2-(1-(4-(2,6-dimethylphenoxy)phenyl)pyrrolidin-2-yl)acetic acid, HCl]	found having hGRP40 modulating activity
Cc1ccccc1Oc1ccc(N2CCC[C@H]2CC(=O)O)cc1 [Example 5, (S)-2-(1-(4-(o-tolyloxy)phenyl)pyrrolidin-2-yl)acetic acid, HCl]	found having hGRP40 modulating activity
O=C(O)C[C@@H]1CCCN1c1ccc(Oc2ccccc2)cc1 [Example 6, (S)-2-(1-(4-phenoxyphenyl)pyrrolidin-2-yl)acetic acid, HCl]	found having hGRP40 modulating activity
CCOc1ccccc1Oc1ccc(N2CCC[C@H]2CC(=O)O)cc1 [Example 7, (S)-2-(1-(4-(2-ethoxyphenoxy)phenyl)pyrrolidin-2-yl)acetic acid, HCl]	found having hGRP40 modulating activity
O=C(O)C[C@@H]1CCCN1c1ccc(Oc2ccccc2Cc2ccccc2)cc1 [Example 8, (S)-2-(1-(4-(2-benzylphenoxy)phenyl)pyrrolidin-2-yl)acetic acid, HCl]	found having hGRP40 modulating activity
O=C(O)C[C@H]1CCCN1c1ccc(Oc2ccccc2Cc2ccccc2)cc1 [Example 9, (R)-2-(1-(4-(2-benzylphenoxy)phenyl)pyrrolidin-2-yl)acetic acid, HCl]	found having hGRP40 modulating activity
O=C(O)C[C@@H]1CCCN1c1ccc(Oc2ccccc2-c2ccccc2)cc1 [Example 10, (S)-2-(1-(4-(biphenyl-2-yloxy)phenyl)pyrrolidin-2-yl)acetic acid, HCl]	found having hGRP40 modulating activity
Cc1nc(C(F)(F)F)ccc1COc1ccc(N2CCC[C@H]2CC(=O)O)cc1 [Example 11, (S)-2-(1-(4-((2-methyl-6-(trifluoromethyl)pyridin-3-yl)methoxy)phenyl)pyrrolidin-2-yl)acetic acid, HCl]	found having hGRP40 modulating activity
O=C(O)C[C@@H]1CCCN1c1ccc(OCc2ccccc2)cc1 [Example 12, (S)-2-(1-(4-(benzyloxy)phenyl)pyrrolidin-2-yl)acetic acid, HCl]	found having hGRP40 modulating activity
Cc1ccccc1COc1ccc(N2CCC[C@H]2CC(=O)O)cc1 [Example 13, (S)-2-(1-(4-(2-methylbenzyloxy)phenyl)pyrrolidin-2-yl)acetic acid, HCl]	found having hGRP40 modulating activity
O=C(O)C[C@@H]1CCCN1c1ccc(OCc2ccc(Cl)cc2Cl)cc1 [Example 14, (S)-2-(1-(4-(2,4-dichlorobenzyloxy)phenyl)pyrrolidin-2-yl)acetic acid]	found having hGRP40 modulating activity
O=C(O)C[C@@H]1CCCN1c1ccc(OCc2ccc(Cl)c(Cl)c2)cc1 [Example 15, (S)-2-(1-(4-(3,4-dichlorobenzyloxy)phenyl)pyrrolidin-2-yl)acetic acid, HCl]	found having hGRP40 modulating activity
CC(C)Sc1ncccc1COc1ccc(N2CCC[C@H]2CC(=O)O)cc1 [Example 16, (S)-2-(1-(4-((2-(isopropylthio)pyridin-3-yl)methoxy)phenyl)pyrrolidin-2-yl)acetic acid]	found having hGRP40 modulating activity
O=C(O)C[C@@H]1CCCN1c1ccc(OCc2cccc(C(F)(F)F)c2)cc1 [Example 17, (S)-2-(1-(4-(3-(trifluoromethyl)benzyloxy)phenyl)pyrrolidin-2-yl)acetic acid, HCl]	found having hGRP40 modulating activity
O=C(O)C[C@@H]1CCCN1c1ccc(Oc2ncc(C(F)(F)F)cc2Cl)cc1 [Example 18, (S)-2-(1-(4-(3-chloro-5-(trifluoromethyl)pyridin-2-yloxy)phenyl)pyrrolidin-2-yl)acetic acid, TFA]	found having hGRP40 modulating activity

SMILES	hGRP40 modulating activity
O=C(O)C[C@@H]1CCCN1c1ccc(Oc2ccc(Cl)cc2Cl)cc1 [Example 19, (S)-2-(1-(4-(2,4-dichlorophenoxy)phenyl)pyrrolidin-2-yl)acetic acid, TFA]	found having hGRP40 modulating activity
O=C(O)C[C@@H]1CCCN1c1ccc(Cc2ccccc2)cc1 [Example 20, (S)-2-(1-(4-benzylphenyl)pyrrolidin-2-yl)acetic acid, HCl]	found having hGRP40 modulating activity
Cc1ccccc1Cc1ccc(N2CCC[C@H]2CC(=O)O)cc1 [Example 21, (S)-2-(1-(4-(2-methylbenzyl)phenyl)pyrrolidin-2-yl)acetic acid, TFA]	found having hGRP40 modulating activity
O=C(O)C[C@@H]1CCCN1c1ccc(Cc2ccccc2F)cc1 [Example 22, (S)-2-(1-(4-(2-fluorobenzyl)phenyl)pyrrolidin-2-yl)acetic acid, HCl]	found having hGRP40 modulating activity
O=C(O)C[C@@H]1CCCN1c1ccc(Cc2ccccc2Cl)cc1 [Example 23, (S)-2-(1-(4-(2-chlorobenzyl)phenyl)pyrrolidin-2-yl)acetic acid, TFA]	found having hGRP40 modulating activity
O=C(O)C[C@@H]1CCCN1c1ccc(Cc2ccc3ccccc3c2)cc1 [Example 24, (S)-2-(1-(4-(naphthalen-2-ylmethyl)phenyl)pyrrolidin-2-yl)acetic acid, TFA]	found having hGRP40 modulating activity
O=C(O)C[C@@H]1CCCN1c1ccc(Cc2cc(F)cc(F)c2)cc1 [Example 25, (S)-2-(1-(4-(3,5-difluorobenzyl)phenyl)pyrrolidin-2-yl)acetic acid, TFA]	found having hGRP40 modulating activity
COc1ccccc1Cc1ccc(N2CCC[C@H]2CC(=O)O)cc1 [Example 26, (S)-2-(1-(4-(2-methoxybenzyl)phenyl)pyrrolidin-2-yl)acetic acid, TFA]	found having hGRP40 modulating activity
O=C(O)C[C@@H]1CCCN1c1ccc(Cc2c(F)cccc2F)cc1 [Example 27, (S)-2-(1-(4-(2,6-difluorobenzyl)phenyl)pyrrolidin-2-yl)acetic acid, TFA]	found having hGRP40 modulating activity
O=C(O)C[C@@H]1CCCN1c1ccc(Cc2ccc(Cl)cc2)cc1 [Example 28, (S)-2-(1-(4-(4-chlorobenzyl)phenyl)pyrrolidin-2-yl)acetic acid, TFA]	found having hGRP40 modulating activity
O=C(O)C[C@@H]1CCCN1c1ccc(Cc2ccccc2C(F)(F)F)cc1 [Example 29, (S)-2-(1-(4-(2-(trifluoromethyl)benzyl)phenyl)pyrrolidin-2-yl)acetic acid, TFA]	found having hGRP40 modulating activity
CC(c1ccccc1)c1ccc(N2CCC[C@H]2CC(=O)O)cc1 (stereo partly drawn) [Example 30, 2-((2S)-1-(4-(1-phenylethyl)phenyl)pyrrolidin-2-yl)acetic acid, TFA]	found having hGRP40 modulating activity
Cc1ccc(Oc2ccc(N3CCC[C@H]3CC(=O)O)cc2)c(C)c1 [Example 31, (S)-2-(1-(4-(2,4-dimethylphenoxy)phenyl)pyrrolidin-2-yl)acetic acid, TFA]	found having hGRP40 modulating activity
Cc1ccccc1Cc1ccc(N2C[C@H](O)C[C@H]2CC(=O)O)cc1 [Example 32, 2-((2S,4R)-4-hydroxy-1-(4-(2-methylbenzyl)phenyl)pyrrolidin-2-yl)acetic acid, TFA]	found having hGRP40 modulating activity
Cc1ccccc1Cc1ccc(N2CC(F)(F)C[C@H]2CC(=O)O)cc1 [Example 33, (R)-2-(4,4-difluoro-1-(4-(2-methylbenzyl)phenyl)pyrrolidin-2-yl)acetic acid, TFA]	found having hGRP40 modulating activity
O=C(O)C[C@@H]1CCCN1c1ccc(Cc2ccc(OCc3ccccc3F)cc2)cc1 [Example 34, (S)-2-(1-(4-(4-(2-fluorobenzyloxy)benzyl)phenyl)pyrrolidin-2-yl)acetic acid, TFA]	found having hGRP40 modulating activity
Cc1ccccc1Cc1ccc(N2C[C@@H](C)C[C@H]2CC(=O)O)cc1 [Example 35, 2-((2S,4S)-4-methyl-1-(4-(2-methylbenzyl)phenyl)pyrrolidin-2-yl)acetic acid, TFA]	found having hGRP40 modulating activity
Cc1ccccc1Oc1ccc(N2C[C@@H](F)C[C@H]2CC(=O)O)cc1 [Example 36, 2-((2R,4S)-4-fluoro-1-(4-(o-tolyloxy)phenyl)pyrrolidin-2-yl)acetic acid, TFA]	found having hGRP40 modulating activity
